Reference: US20250353835A1, “N-TETRAZOLYL ARYL UREA-BASED DERIVATIVES, PREPARATION METHOD THEREFOR, AND USE THEREOF” (Hangzhou Yirui Pharmaceutical Technology Co., Ltd, priority 2022, published 2025)

System: rat model of diabetic retinopathy
Assay: Rat model of diabetic retinopathy (STZ)
Format: in vivo, Wistar rats
Conditions: 14 days after intravitreal injection, compounds 0.25%, dexamethasone 0.1%
Method: 3.1 Laboratory animals: SPF-grade male Wistar rats, weighed 180-220 g.
3.3 Animal modeling and grouping: After one week of adaptive feeding, 134 male Wistar rats (weighed 220-260 g) were administered 65 mg/kg of STZ by one-time intraperitoneal injection to prepare a rat model of type I diabetic. The rats were fasting but water was allowable overnight for 15 h. The formulated STZ solution was intraperitoneally injected according to body weight. After 1 h, the diet was resumed and blood glucose was measured at 72 h. The successfully modeled diabetic rats (120 rats) were selected for continued feeding, and randomly divided into the following 6 groups according to blood glucose (20 rats per group), plus a group of normal rats with no STZ injected as a negative control group.
3.4 Administration: The rats continued to be fed until blood glucose was measured once before administration. After blood glucose reached the standard, drugs were intravitreally injected, and indexs were subsequently tested after 14 days. Blood glucose was measured once before sampling.
3.5 Evans blue staining method (7 groups, 6 rats per group): Evans blue was intravenously injected. 2 hours later, normal saline was perfused into the left ventricle. The retina was taken to compare between the stained area and the unstained area to detect retinal vascular permeability.
3.6 Retinal leukocyte stasis detection method (7 groups, 6 rats per group): PBS was perfused into the left ventricle for 1 min to remove red blood cells and other substances. Concanavalin A (FITC (Sigma, C7642) was perfused (20 μg/ml in PBS, 5 mg/kg) to mark adherent leukocytes. 4% PFA was perfused for 4 min for fixation. 1% Albumin (Sigma, A6414) (in PBS) was perfused for 1 min, and then PBS was perfused for 2 min. The retina was taken for retinal wholemount. Thereafter, the stasis of leukocytes on the vascular endothelium was observed under a fluorescence microscope. […]

SMILES | Blood glucose concentration of the rats in Batch 1 (mmol/L), before sampling [mmol/L] | Blood glucose concentration of the rats in Batch 2 (mmol/L), before sampling [mmol/L]
CCOc1ccc(-c2c(F)cc(NC(=O)N3CCC(C(C)(C)C)CC3)cc2-c2nn[nH]n2)cn1 [Compound 8, 4-(tert-butyl)-N-(4-(6-ethoxypyrid-3-yl)-3-fluoro-5-(2H-tetrazol-5-yl)phenyl)piperidine-1-carboxamide] | 19.03 ± 1.51 | 18.56 ± 1.40
COc1ccc(-c2c(F)cc(NC(=O)N3CCC(C(C)(C)C)CC3)cc2-c2nn[nH]n2)cc1OC [Compound 11, 4-(tert-butyl)-N-(2-fluoro-3′,4′-dimethoxy-6-(2H-tetrazol-5-yl)-[1,1′-biphenyl]-4-yl)piperidine-1-carboxamide] | 19.02 ± 1.50 | 18.57 ± 1.41
COc1ccc(-c2ccc(NC(=O)N(C)[C@H]3CC[C@H](C(C)(C)C)CC3)cc2-c2nn[nH]n2)cc1OC [Compound 65, 1-((trans)-4-(tert-butyl)cyclohexyl)-3-(3′,4′-dimethoxy-2-(2H-tetrazol-5-yl)-[1,1′-biphenyl]-4-yl)-1-methylurea] | 19.15 ± 1.25 | 18.27 ± 1.98
CCOc1ccc(-c2ccc(NC(=O)N[C@H]3CC[C@H](C)CC3)cc2-c2nn[nH]n2)cn1 [Compound 71, 1-(4-(6-ethoxypyrid-3-yl)-3-(2H-tetrazol-5-yl)phenyl)-3-((trans)-4-methylcyclohexyl)urea] | 19.52 ± 1.07 | 18.53 ± 1.93
